Reference: paper PMC6908259
These are yes or no findings as the source states them, for the method shown. In cells and extracts the contact can be indirect. Some binding calls cover weakened binding; strength is not graded here. Where a sequence is shown, tags or fusion partners need not be part of it.

Target: T1, GFP-tagged AC40 subunit of RNA polymerase III (S. cerevisiae) (UniProt P07703)
T1 sequence: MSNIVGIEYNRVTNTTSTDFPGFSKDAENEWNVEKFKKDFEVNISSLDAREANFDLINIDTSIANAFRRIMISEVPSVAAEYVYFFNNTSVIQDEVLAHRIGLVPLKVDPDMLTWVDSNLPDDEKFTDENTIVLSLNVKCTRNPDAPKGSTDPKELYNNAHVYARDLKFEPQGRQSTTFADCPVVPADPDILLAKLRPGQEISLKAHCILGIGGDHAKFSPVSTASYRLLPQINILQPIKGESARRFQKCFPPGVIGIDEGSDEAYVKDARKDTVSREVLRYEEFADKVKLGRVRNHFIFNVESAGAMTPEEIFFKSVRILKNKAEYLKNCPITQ
Assay: co-IP; extracts of yeast expressing AC40-GFP and C160-HA incubated with magnetic beads coated with anti-GFP antibody, extensive washes, Western blot (GFP, HA, C82, C53); cells untreated, or treated with EtOH or 100 ug/ml MPA for 2 h

Binder	binding
HA-tagged C160 subunit of RNA polymerase III (protein, UniProt P04051 1-1460) MKEVVVSETPKRIKGLEFSALSAADIVAQSEVEVSTRDLFDLEKDRAPKANGALDPKMGVSSSSLECATCHGNLASCHGHFGHLKLALPVFHIGYFKATIQILQGICKNCSAILLSETDKRQFLHELRRPGVDNLRRMGILKKILDQCKKQRRCLHCGALNGVVKKAAAGAGSAALKIIHDTFRWVGKKSAPEKDIWVGEWKEVLAHNPELERYVKRCMDDLNPLKTLNLFKQIKSADCELLGIDATVPSGRPETYIWRYLPAPPVCIRPSVMMQDSPASNEDDLTVKLTEIVWTSSLIKAGLDKGISINNMMEHWDYLQLTVAMYINSDSVNPAMLPGSSNGGGKVKPIRGFCQRLKGKQGRFRGNLSGKRVDFSGRTVISPDPNLSIDEVAVPDRVAKVLTYPEKVTRYNRHKLQELIVNGPNVHPGANYLLKRNEDARRNLRYGDRMKLAKNLQIGDVVERHLEDGDVVLFNRQPSLHRLSILSHYAKIRPWRTFRLNECVCTPYNADFDGDEMNLHVPQTEEARAEAINLMGVKNNLLTPKSGEPIIAATQDFITGSYLISHKDSFYDRATLTQLLSMMSDGIEHFDIPPPAIMKPYYLWTGKQVFSLLIKPNHNSPVVINLDAKNKVFVPPKSKSLPNEMSQNDGFVIIRGSQILSGVMDKSVLGDGKKHSVFYTILRDYGPQEAANAMNRMAKLCARFLGNRGFSIGINDVTPADDLKQKKEELVEIAYHKCDELITLFNKGELETQPGCNEEQTLEAKIGGLLSKVREEVGDVCINELDNWNAPLIMATCGSKGSTLNVSQMVAVVGQQIISGNRVPDGFQDRSLPHFPKNSKTPQSKGFVRNSFFSGLSPPEFLFHAISGREGLVDTAVKTAETGYMSRRLMKSLEDLSCQYDNTVRTSANGIVQFTYGGDGLDPLEMEGNAQPVNFNRSWDHAYNITFNNQDKGLLPYAIMETANEILGPLEERLVRYDNSGCLVKREDLNKAEYVDQYDAERDFYHSLREYINGKATALANLRKSRGMLGLLEPPAKELQGIDPDETVPDNVKTSVSQLYRISEKSVRKFLEIALFKYRKARLEPGTAIGAIGAQSIGEPGTQMTLKTFHFAGVASMNVTLGVPRIKEIINASKVISTPIINAVLVNDNDERAARVVKGRVEKTLLSDVAFYVQDVYKDNLSFIQVRIDLGTIDKLQLELTIEDIAVAITRASKLKIQASDVNIIGKDRIAINVFPEGYKAKSISTSAKEPSENDVFYRMQQLRRALPDVVVKGLPDISRAVINIRDDGKRELLVEGYGLRDVMCTDGVIGSRTTTNHVLEVFSVLGIEAARYSIIREINYTMSNHGMSVDPRHIQLLGDVMTYKGEVLGITRFGLSKMRDSVLQLASFEKTTDHLFDAAFYMKKDAVEGVSECIILGQTMSIGTGSFKVVKGTNISEKDLVPKRCLFESLSNEAALKAN	binds
C82 subunit of RNA polymerase III (protein, UniProt P32349 1-654) MDELLGEALSAENQTGESTVESEKLVTPEDVMTISSLEQRTLNPDLFLYKELVKAHLGERAASVIGMLVALGRLSVRELVEKIDGMDVDSVKTTLVSLTQLRCVKYLQETAISGKKTTYYYYNEEGIHILLYSGLIIDEIITQMRVNDEEEHKQLVAEIVQNVISLGSLTVEDYLSSVTSDSMKYTISSLFVQLCEMGYLIQISKLHYTPIEDLWQFLYEKHYKNIPRNSPLSDLKKRSQAKMNAKTDFAKIINKPNELSQILTVDPKTSLRIVKPTVSLTINLDRFMKGRRSKQLINLAKTRVGSVTAQVYKIALRLTEQKSPKIRDPLTQTGLLQDLEEAKSFQDEAELVEEKTPGLTFNAIDLARHLPAELDLRGSLLSRKPSDNKKRSGSNAAASLPSKKLKTEDGFVIPALPAAVSKSLQESGDTQEEDEEEEDLDADTEDPHSASLINSHLKILASSNFPFLNETKPGVYYVPYSKLMPVLKSSVYEYVIASTLGPSAMRLSRCIRDNKLVSEKIINSTALMKEKDIRSTLASLIRYNSVEIQEVPRTADRSASRAVFLFRCKETHSYNFMRQNLEWNMANLLFKKEKLKQENSTLLKKANRDDVKGRENELLLPSELNQLKMVNERELNVFARLSRLLSLWEVFQMA	binds
C53 subunit of RNA polymerase III (protein, UniProt P25441 1-422) MSSNKGNGRLPSLKDSSSNGGGSAKPSLKFKPKAVARKSKEEREAAASKVKLEEESKRGNDKKHFNNKNKRVTGAGGQQRRMAKYLNNTHVISSGPLAAGNFVSEKGDLRRGFIKSEGSGSSLVQKGLETIDNGAESSENEAEDDDNEGVASKSKKKFNMGKEFEARNLIEDEDDGESEKSSDVDMDDEEWRSKRIEQLFPVRPVRVRHEDVETVKREIQEALSEKPTREPTPSVKTEPVGTGLQSYLEERERQVNEKLADLGLEKEFQSVDGKEAAAELELLNADHQHILRKLKKMNNKPERFMVFQLPTRLPAFERPAVKEEKEDMETQASDPSKKKKNIKKKDTKDALSTRELAGKVGSIRVHKSGKLSVKIGNVVMDIGKGAETTFLQDVIALSIADDASSAELLGRVDGKIVVTPQI	binds
